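Cleavage of a resorufin-linked glucose substrate by isolated lysosomal acid glucosylceramidase was followed by fluorescence over a 20-minute room-temperature incubation. Each compound was run as a titration series spanning about 0.6 nM up to 50 µM final. The number is the fitted half-maximal concentration (AC50); a lower value means a more potent inhibitor. The record treats a '>' qualifier as no measurable activity (inactive); no explicit numeric cut-off is stated.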

By UniProt entry, the sequences of proteins in these tests, tags left out.
UniProt P04062, whole entry, target on record: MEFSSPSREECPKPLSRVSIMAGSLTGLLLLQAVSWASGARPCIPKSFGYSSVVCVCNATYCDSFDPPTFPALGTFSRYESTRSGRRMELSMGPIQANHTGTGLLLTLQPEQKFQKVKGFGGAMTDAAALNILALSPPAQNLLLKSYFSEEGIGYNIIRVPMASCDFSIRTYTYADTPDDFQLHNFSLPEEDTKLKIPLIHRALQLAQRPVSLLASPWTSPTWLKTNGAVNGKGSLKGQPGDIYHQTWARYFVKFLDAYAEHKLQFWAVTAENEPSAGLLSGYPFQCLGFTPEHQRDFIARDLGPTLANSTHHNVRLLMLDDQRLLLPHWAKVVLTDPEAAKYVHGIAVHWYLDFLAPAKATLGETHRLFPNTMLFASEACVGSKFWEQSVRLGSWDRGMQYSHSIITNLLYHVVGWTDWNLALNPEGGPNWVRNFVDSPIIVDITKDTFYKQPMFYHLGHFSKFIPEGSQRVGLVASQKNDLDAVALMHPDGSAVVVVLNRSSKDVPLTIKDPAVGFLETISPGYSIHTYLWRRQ

Values are in µM. Every entry below has the call inactive. These are entries filed as inactive; the hits of the assay are not listed here.

With Cc1cc(NC(=O)c2cc(-c3cccs3)on2)no1 the assay gave potency >76.9 µM. Result for O=C(NCCO)c1scc2c1OCCO2 was potency >76.9 µM. With Cc1csc(SCC(=O)NC(=O)NCc2ccccc2)n1 the assay gave potency >76.9 µM. O=C(O)C1CCCCC1C(=O)NCCc1cccc(Cl)c1 (stereo not shown) gave potency >76.9 µM. CCOc1ccccc1N(CC(=O)Nc1ccc2c(c1)OCCO2)S(C)(=O)=O read potency >76.9 µM.

For COC(=O)CCC(NC(=O)OCc1ccccc1)C(=O)NC(CC(C)C)C(=O)OC (stereo not shown) the result was potency >76.9 µM. With Cn1nnnc1SCC(=O)NC(=O)Cc1ccccc1 the assay gave potency >76.9 µM. O=C(O)C1CCC(=O)N1Cc1ccccc1Cl (stereo not shown) read potency >76.9 µM. With Cc1ccc(CNC(=O)CCNC(=O)Cn2ccc3ccccc3c2=O)o1 the assay gave potency >76.9 µM. Result for Cc1oc2cc3c(C(=O)N4CCN(C)CC4)c(C)oc3cc2c1C(=O)N1CCN(C)CC1 was potency >76.9 µM.

For N#CCCCSc1ncccc1-c1nc2ccccc2[nH]1 the result was potency >76.9 µM. With O=C(Nc1ccc(F)cc1F)c1cc2ncc(Br)cn2n1 the assay gave potency >76.9 µM. Result for COC(=O)c1cccc(NC(=O)CN2CCN(c3ccc(OC)cc3)CC2)c1 was potency >76.9 µM. With CCCCn1c(SCC(=O)c2ccc3c(c2)OCCO3)nnc1-c1ccco1 the assay gave potency >76.9 µM. Result for CCn1c(COc2ccccc2C(N)=O)nc2ccccc21 was potency >76.9 µM.

CCOC(=O)C1=C(C)NC(=O)NC1c1ccc(OCC(=O)N2CCCCC2)cc1 (stereo not shown) read potency >76.9 µM. With C=CCNC(=O)C12CC3CC(C1)CC(C(=O)NCC=C)(C3)C2 the assay gave potency >76.9 µM. Result for Cc1cc(C)n2c(SCc3cccs3)nnc2n1 was potency >76.9 µM. Result for Nc1[nH]ncc1C(=O)Nc1cccc(C(F)(F)F)c1 was potency >76.9 µM. COc1ccc(S(=O)(=O)N2Cc3ccccc3CC2C(=O)N2CCOCC2)cc1OC (stereo not shown) read potency >76.9 µM.

With CS(=O)(=O)NCc1ccc(C(=O)NC2CCCCC2)cc1 the assay gave potency 43.6 µM. Result for CN(c1nc2ccccc2n2c(-c3ccco3)nnc12)S(=O)(=O)c1ccccc1 was potency >76.9 µM. CN(CCc1ccccn1)C(=O)CN(C)S(=O)(=O)c1ccc2c(c1)c(=O)n(C)c(=O)n2C read potency >76.9 µM. Result for Cc1cccc(NCc2ccccc2O)c1 was potency >76.9 µM. For O=C(O)CCN=C1CCCc2ccccc2N1 the result was potency >76.9 µM.

For CCOC(=O)C(CC)Sc1ncnc2nc[nH]c12 (stereo not shown) the result was potency >76.9 µM. Cc1cc(C)n2cc(CSc3nnnn3-c3ccc(Cl)cc3)nc2n1 gave potency >76.9 µM. Cn1cnnc1SCC(=O)NC(=O)NC1CCCC1 read potency >76.9 µM. Result for O=C(c1cccc2cccc(O)c12)N1CCCCC1 was potency >76.9 µM. With O=C(Nc1ccc(S(=O)(=O)N2CCOCC2)cc1)c1ccc(Cl)s1 the assay gave potency 39.1 µM.

O=C(NCc1ccc2c(c1)OCO2)c1cc2n(n1)C(C(F)(F)F)CC(c1ccc3c(c1)OCO3)N2 (stereo not shown) gave potency >76.9 µM. With O=C(Nc1ccccc1Sc1ccccc1)C1CCCO1 (stereo not shown) the assay gave potency >76.9 µM. For O=c1c2[nH]c3ccccc3c2ncn1Cc1cccnc1 the result was potency >76.9 µM. Cc1ccnc(NC(=O)CN(C)S(=O)(=O)c2cccc3nsnc23)c1 read potency >76.9 µM. CCOC(=O)c1csc(NC(=O)CSc2nnnn2CC)n1 read potency >76.9 µM.

CCOC(=O)C1CCN(C(=O)COc2cc(C)c(Br)cc2C)CC1 gave potency >76.9 µM.

Some entries from above, unchanged:

compound,potency (µM)
CCOC(=O)c1csc(NC(=O)CSc2nnnn2CC)n1,>76.9
CS(=O)(=O)NCc1ccc(C(=O)NC2CCCCC2)cc1,43.6
O=C(Nc1ccc(F)cc1F)c1cc2ncc(Br)cn2n1,>76.9
Cc1cc(NC(=O)c2cc(-c3cccs3)on2)no1,>76.9

The results are deposited in PubChem (AID360; NCATS, 2006).